# Results: PubChem BioAssay AID602296 (Broad Institute, 2012)
# The whole screen tested about 2,000 compounds, of which about 190 (9.5%) were called active. Not shown: some 14% with an inconclusive outcome.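 Rule for the calls: active = fitted activation curve crossing 40% at a concentration no higher than the sample's top valid tested dose; inconclusive = flat fitted curve at 30% to 70% activation, or poor curve fit; inactive = signal decrease, flat curve within 30%, or the rest.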 This part holds few or none of the hits.
# Test: sustained heat shock response element induction – cell-based, mouse, luciferase, cherry-pick, dose, confirmation (AID 602296);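 note: test compounds applied by themselves with no MG132 co-treatment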
# Conditions: NIH3T3-HGL HSF-1 response element luciferase, 48 h; at 26 µM (top of the series) unless noted
row,Compound,activation
1,COc1ccc(CNC(=O)CCC(=O)N2CC(C)Oc3ccccc32)cc1 (stereo not drawn),inactive: 0.672%
2,Cc1ccccc1-c1cc(=O)c2c(O)cccc2o1,inactive: 18.5%
3,C=CCSc1nc(-c2ccc(OC)cc2)c(C#N)c(=O)n1CC=C,inactive: -29.2%
4,COC(=O)c1ccc2c(c1O)C(=O)c1ccccc1C2=O,inactive: 4.71%
5,CCc1cccc(NS(=O)(=O)c2ccc3c(c2)NC(=O)C(C)S3)c1 (stereo not drawn),inactive: -41.7%
6,CCN(CC)S(=O)(=O)c1ccc2c(c1)nc(SCC(=O)NC1CC1)n2-c1ccccc1OC,inactive: -3.87%
7,CCC(=NC(C)c1ccccc1)c1c(O)n(C)c(=O)n(C)c1=O (stereo not drawn),inactive: -26.4%
8,Cc1ccc(/C=N/N(Cc2ccccc2)c2ccccc2)o1,inactive: -5.13%
9,COc1ccc(CCN=C(NS(=O)(=O)c2ccccc2)c2ccccc2)cc1OC,inactive: 7.5%
10,CCC(=O)OCCNc1cc(Sc2nccn2C)c2nonc2c1[N+](=O)[O-],inactive: -101%
11,COc1ccccc1CNC(=O)c1ccc(NS(=O)(=O)c2cccs2)cc1,inactive: 13.6%
12,CSc1nc(-c2ccccc2)nc(C(Cl)Cl)n1,inactive: -96.7%
13,O=C(CN(C(=O)c1csnn1)c1ccc(F)c(Cl)c1)NCc1ccc(F)cc1,inactive: -5.21%
14,CC(Nc1cc(N2CCNCC2)ccc1[N+](=O)[O-])c1ccccc1 (stereo not drawn),inactive: -1.04%
15,COc1ccc(CCNC(=O)Nc2cccc([N+](=O)[O-])c2)cc1OC,inactive: -9.08%
16,COc1ccc(/C=N/Nc2cc(C)nc3ccc(Br)cc23)cc1,inactive: -106%
17,O=C(Nc1ccccc1O)c1cccc(S(=O)(=O)Nc2ccccc2O)c1,inactive: 7.3%
18,Cc1ccc(/C=C/C(=O)Nc2ccc(S(=O)(=O)Nc3cc(C)nc(C)n3)cc2)cc1,inactive: -32.4%
19,NC(=O)c1ccc(NC(=O)CC23CC4CC(CC(Br)(C4)C2)C3)cc1,inactive: 2.54%
20,CC1(C)Cc2c(C#N)c(N3CCCC3)nc(-c3ccco3)c2CO1,inactive: -13%

row,Compound,activation
1,Brc1ccc2c(c1)C(c1cccnc1)=NNC(c1cccs1)=N2,inactive: -23.4%
2,O=C1CCN(C(=O)Nc2ccccc2Cl)N1,inactive: 4.56%
3,Cc1ccc(C)c(NC(=O)C2CC(O)CN2C(=O)Oc2ccccc2)c1 (stereo not drawn),inactive: -6.42%
4,O=[N+]([O-])/C=C/c1ccc2c(ccn2Cc2ccccc2)c1,inactive: -103%
5,Cc1ccccc1NC(=O)CSc1nc(Nc2ccccc2)nc(N2CCOCC2)n1,inactive: -24.3%
6,Cc1ccc2oc(C(Cl)(Cl)Cl)cc(=O)c2c1,inactive: -33.6%
7,Cc1ccc(O)c(NC(=O)COc2cc(C)ccc2C)c1,inactive: -33.9%
8,CCOC(=O)CC(NS(=O)(=O)c1ccc2[nH]cc(C(=O)O)c(=O)c2c1)c1ccc(OCC)c(OC)c1 (stereo not drawn),inactive: 4.46%
9,CCOC(=O)c1c(C)[nH]c(C)c1S(=O)(=O)N1CCN(c2ccc(F)cc2)CC1,inactive: 3.87%
10,CCCC(=O)NC(c1ccc(N(C)C)cc1)c1ccc2cccnc2c1O (stereo not drawn),inactive: -66.1%
11,COc1cc2[nH]c(=S)nc(NCc3ccc(Cl)cc3)c2cc1OC,inactive: 3.41%
12,Cc1cccc(/C=C/C(=O)c2ccc([N+](=O)[O-])o2)c1,inactive: -100%
13,COc1cc(C(=O)Nc2ccc(S(=O)(=O)N3CCc4ccccc43)cc2)cc(OC)c1OC,inactive: -48.5%
14,C=CCn1c(C)cc(C(=O)CSc2nc(N)cc(N)n2)c1C,inactive: -3.17%
15,CC(C)C(C)N(Cc1ccc(C(=O)O)cc1)C(=O)c1ccc2ccccc2n1 (stereo not drawn),inactive: -7.06%
16,O=C(CCl)N1CCN2C(=O)c3ccccc3C12c1ccc(Cl)cc1 (stereo not drawn),inactive: 6.48%
17,Cc1ccc(C)c(Cn2nnc3c(=O)[nH]c(C4CCN(C(=O)c5cccs5)CC4)nc32)c1,inactive: -16.5%
18,Cc1c(N(C)S(=O)(=O)c2cccc(C(=O)NC(C)C)c2)c(=O)n(-c2ccccc2)n1C,inactive: -8.73%
19,CC(C)c1ccc(/C=C/C(=O)n2nnc3ccccc32)cc1,inactive: -18%
20,COc1cc(COCC(O)CN2CCN(CCN3C(=O)c4cccc5cccc(c45)C3=O)CC2)cc(OC)c1OC (stereo not drawn),inactive: -6.7%

row,Compound,activation
1,O=C(O)c1cnn(-c2nc(-c3cccc([N+](=O)[O-])c3)cs2)c1C(F)(F)F,inactive: -9.3%
2,Nn1c(SCC(=O)N2CCOCC2)nnc1C1CC1,inactive: -5.21%
3,Nc1ccccc1Nc1ccc([N+](=O)[O-])cc1[N+](=O)[O-],inactive: -1.13%
4,Cc1c(-c2n[nH]c(=S)n2-c2ccc(C(F)(F)F)cc2)nnn1-c1ccccc1,inactive: -5.63%
5,COc1ccc(-c2nc(Cn3c(SCc4ccc(F)cc4)nc4ccncc43)c(C)o2)cc1OC,inactive: -16.8%
6,O=C1C2CCCCC2C(=O)N1Cc1ccccc1 (stereo not drawn),inactive: -6.54%
7,N#Cc1ccc(-c2ccc(Cl)cc2)nc1Oc1ccc(F)cc1,inactive: -3.7%
8,O=C(Nc1ccc(S(=O)(=O)N2CCCCC2)cc1)C1CCN(C(=O)c2ccco2)CC1,inactive: 2.98%
9,CCCc1nc2oc3cc(OC)ccc3c(=O)c2c(=O)n1CCc1ccccc1,inactive: -10.3%
10,CCOC(=O)C1CCCN(CC(=O)Nc2c(C(=O)OC)[nH]c3ccccc23)C1 (stereo not drawn),inactive: 0.175%
11,O=c1oc2cc(O)ccc2cc1S(=O)(=O)c1ccccc1,inactive: 6.11%
12,COc1ccccc1CNC(=O)c1csc(Cc2ccc(Cl)cc2)n1,inactive: -43.2%
13,COc1ccc(S(=O)(=O)Nc2cc3c4c(oc3c3ccccc23)CCCC4=O)cc1,inactive: -49%
14,Cc1ccc(S(=O)(=O)NNC(=O)c2cnn(-c3ccc(Cl)cc3)c2C(F)(F)F)cc1,inactive: -9.84%
15,CNC(=O)N(O)C1N(/N=C/c2c(F)cccc2Cl)C(=S)SC1(C)C (stereo not drawn),inactive: -5.57%
16,COC(=O)C1=CN(c2ccc(F)cc2)C=C(C(=O)OC)C1c1cccc(Br)c1,inactive: -34.7%
17,COc1ccc(/C(C)=N/NC(=S)NCc2ccco2)cc1,inactive: -18.9%
18,Cc1c(-n2cc(C(=O)c3ccccc3O)cc(C#N)c2=O)c(=O)n(-c2ccccc2)n1C,inactive: 11.6%

# Reformatted as tab-separated lines: entries from further up.
row	Compound	activation
3	Nc1ccccc1Nc1ccc([N+](=O)[O-])cc1[N+](=O)[O-]	inactive: -1.13%
4	Cc1c(-c2n[nH]c(=S)n2-c2ccc(C(F)(F)F)cc2)nnn1-c1ccccc1	inactive: -5.63%
5	COc1ccc(-c2nc(Cn3c(SCc4ccc(F)cc4)nc4ccncc43)c(C)o2)cc1OC	inactive: -16.8%
6	O=C1C2CCCCC2C(=O)N1Cc1ccccc1 (stereo not drawn)	inactive: -6.54%
7	N#Cc1ccc(-c2ccc(Cl)cc2)nc1Oc1ccc(F)cc1	inactive: -3.7%
8	O=C(Nc1ccc(S(=O)(=O)N2CCCCC2)cc1)C1CCN(C(=O)c2ccco2)CC1	inactive: 2.98%
9	CCCc1nc2oc3cc(OC)ccc3c(=O)c2c(=O)n1CCc1ccccc1	inactive: -10.3%
10	CCOC(=O)C1CCCN(CC(=O)Nc2c(C(=O)OC)[nH]c3ccccc23)C1 (stereo not drawn)	inactive: 0.175%
11	O=c1oc2cc(O)ccc2cc1S(=O)(=O)c1ccccc1	inactive: 6.11%
12	COc1ccccc1CNC(=O)c1csc(Cc2ccc(Cl)cc2)n1	inactive: -43.2%
13	COc1ccc(S(=O)(=O)Nc2cc3c4c(oc3c3ccccc23)CCCC4=O)cc1	inactive: -49%
14	Cc1ccc(S(=O)(=O)NNC(=O)c2cnn(-c3ccc(Cl)cc3)c2C(F)(F)F)cc1	inactive: -9.84%
15	CNC(=O)N(O)C1N(/N=C/c2c(F)cccc2Cl)C(=S)SC1(C)C (stereo not drawn)	inactive: -5.57%
